Values of other authors as cited in patent US20260077065A1, “Compositions and Methods for Assessing Kinase Activity” (The Board of Trustees of the Leland Stanford Junior …, priority 2022, published 2026).
For at least one compound, name, drawing or mass did not settle the structure.

Test system: MEK
Conditions: mouse, in vivo; cited from earlier work

## CC(=O)Nc1cccc(-n2c(=O)n(C3CC3)c(=O)c3c(Nc4ccc(I)cc4F)n(C)c(=O)c(C)c32)c1 [GSK1120212, trametinib]
  effect on MEK activity / ERK phosphorylation in the brain: did not show any effects
